Reference: PubChem BioAssay AID662 (National Center for Advancing Translational Sciences (NCATS), 2007)
Some of the results follow. These are further read-outs of the screen, such as a control signal, another cell line or another target. No call is given for them. Most of these compounds were active or inconclusive in the main read-out, so they are no random draw. The note in brackets gives the kind of curve behind each potency; many fits are weak.

Experiment: Cell signaling CRE-BLA (Fsk stim)
Settings: CHO CRE-bla reporter (cAMP response element driving beta-lactamase), forskolin EC10, beta-lactamase ratio; measured here: 460 nm blue channel
How it was run: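 The 460nm/530nm emission ratio after CCF4 loading defined %Activity, from which AC50 values were obtained. CRE-bla CHO cells received compound dilution series together with an EC10 level of NKH 477 for 3 hours at 37 degrees Celsius.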
In the case of O=c1cnc2cncnc2n1Cc1ccc(F)cc1, the AC50 is reported as 3.98 µM [rising, full curve].
For O=C(CNC(=O)C1CCCCC1)NCCCO, the AC50 was 0.631 µM [falling, full curve].
For CSc1ccc2nnc(-c3cccc(F)c3)n2n1, the AC50 was 25.1 µM [rising, single point].
With COc1ccccc1CCn1c(=O)c(-c2cc(F)cc(F)c2)nc2cncnc21 the AC50 was 12.6 µM [rising, partial curve].
For CC(C)n1c(CCCO)nc2ccccc21, the AC50 was 0.00316 µM [falling, full curve, poor fit].
In the case of O=c1[nH]c(=O)n(Cc2ccccc2)c2nc(-c3ccco3)cc(C(F)(F)F)c12, the AC50 is reported as 2.51 µM [rising, full curve].
In the case of N#CCCn1c(=O)c(-c2cccs2)nc2cnc(Nc3ccccc3)nc21, the AC50 is reported as 1.58 µM [rising, full curve].
With O=C(Nc1ccc2c(c1)ncn2C1CCCCC1)c1ccco1 the AC50 was 12.6 µM [rising, partial curve].
In the case of Cc1ccc(Cn2c(SCc3cccnc3)nc3c2c(=O)n(C)c(=O)n3C)cc1, the AC50 is reported as 10 µM [rising, single point].
For CC(C)=CCc1c2c(c3occ(-c4ccc(O)c(O)c4)c(=O)c3c1O)C=CC(C)(C)O2, the AC50 was 1.58 µM [falling, partial curve, poor fit].
For CN(C)c1ccc(NC(=O)CSCc2nc3c(nnn3Cc3ccc(F)cc3)c(=O)[nH]2)cc1, the AC50 was 0.0126 µM [falling, full curve, poor fit].
For CCCn1c(=O)c(C)cn2nc(N)nc12, the AC50 was 0.0158 µM [rising, full curve, poor fit].
For COCCCn1c(CCC(=O)O)ccc1-c1cccs1, the AC50 was 12.6 µM [rising, single point].
With C[C@H]1C[C@@H]2[C@H]3CCC4=CC(=O)C=C[C@@]4(C)[C@@]3(Cl)[C@@H](O)C[C@]2(C)[C@]1(OC(=O)c1ccco1)C(=O)CCl the AC50 was 3.16 µM [rising, full curve, poor fit].
In the case of CN(C)c1ncc2nc(-c3cccc(C#N)c3)c(=O)n(C)c2n1, the AC50 is reported as 15.8 µM [rising, partial curve].
For C/C(Cl)=C\Cn1c(Nc2ccccc2)nc2c1c(=O)n(C)c(=O)n2C, the AC50 was 10 µM [rising, single point].
In the case of CCCCN(CCCNC(=O)CN1C(=O)COc2ccccc21)c1ccccc1, the AC50 is reported as 0.0126 µM [rising, full curve, poor fit].
With Cn1c(/N=C/c2cc(Cl)ccc2O)nc2ccccc21 the AC50 was 31.6 µM [falling, single point].
For CCc1nnc(NC(=O)CCC(=O)N2CCN(Cc3cc(F)ccc3OC)CC2)s1, the AC50 was 25.1 µM [rising, single point].
With CCCn1c(C)cc(=O)c2cc(NC(=O)c3ccccn3)ccc21 the AC50 was 6.31 µM [rising, partial curve].
In the case of Cc1nn(C)c(C)c1S(=O)(=O)Nc1ccc2c(c1)OCO2, the AC50 is reported as 5.01 µM [falling, partial curve].
With CCOc1ccc(-c2nnc(-c3ccco3)o2)cc1OCC the AC50 was 10 µM [rising, partial curve].
With CCc1nc(Nc2ccc(N3CCN(C(C)=O)CC3)cc2)c2oc3ccccc3c2n1 the AC50 was 1.26 µM [rising, partial curve].
For CN1CCN(c2nc(-c3ccc4c(c3)OCO4)nc3ccccc23)CC1, the AC50 was 12.6 µM [rising, partial curve].
With COC(=O)c1ccc(CSc2nc3c(c(=O)n2-c2ccc(F)cc2)SCC3)o1 the AC50 was 10 µM [rising, partial curve].
In the case of COc1ccc(OC)c(C2/C(=C(\O)c3c(C)nc4ccccn34)C(=O)C(=O)N2CCCN(C)C)c1 (stereo unspecified), the AC50 is reported as 3.16 µM [rising, single point].
With COc1ccc2cc1Oc1ccc(cc1)C[C@@H]1c3c(cc(OC)c4c3Oc3cc5c(cc3O4)CCN[C@H]5C2)CCN1C the AC50 was 0.631 µM [rising, full curve, poor fit].
For O=C(c1nc(-c2ccccc2)n(-c2ccccc2)n1)N1CCN(S(=O)(=O)c2ccccc2)CC1, the AC50 was 0.316 µM [falling, partial curve].
In the case of CCn1cc(C(=O)NCc2cccs2)c(=O)c2cc(S(=O)(=O)N3CCOCC3)ccc21, the AC50 is reported as 15.8 µM [rising, single point].
With COc1ccc(CCN2CC(O)=C(c3nc4ccccc4c(=O)[nH]3)C2=N)cc1OC the AC50 was 2.51 µM [rising, single point].
In the case of CN(CCO)c1ncnc2nc[nH]c12, the AC50 is reported as 10 µM [rising, partial curve].
With O=C(C1=C(O)C(=O)N(Cc2ccccc2)C1c1cccnc1)c1ccco1 (stereo unspecified) the AC50 was 2.51 µM [falling, partial curve].
For Cc1oc(-c2cccc(Cl)c2)nc1CN1CCC(C(=O)NCc2cccnc2)CC1, the AC50 was 10 µM [falling, partial curve].
For Fc1ccc(N2CCN(C(c3cccs3)c3nnnn3CCc3ccccc3)CC2)cc1 (stereo unspecified), the AC50 was 10 µM [falling, single point].
For O=C(NC1=NCCS1)c1ccc(OCC2CCCO2)cc1 (stereo unspecified), the AC50 was 0.00398 µM [falling, full curve, poor fit].
For COc1ccc(-c2nnc(Nc3nc4c(OC)cccc4s3)o2)cc1, the AC50 was 12.6 µM [rising, partial curve].
In the case of CN(c1ccccc1)c1nc(-n2ccnc2)nc(-n2ccnc2)n1, the AC50 is reported as 10 µM [rising, partial curve].
For CCC(=O)c1cc(-c2nc3ccccc3n2C)n(C)c1, the AC50 was 10 µM [rising, partial curve].
For CN1CCN(c2ncc3nc(-c4ccccc4)c(=O)n(CCC#N)c3n2)CC1, the AC50 was 3.98 µM [rising, full curve].
In the case of COc1ccc(-c2c3c(nc4sc(C(=O)Nc5cc(C)on5)c(N)c24)CCC3)cc1, the AC50 is reported as 5.01 µM [rising, partial curve].
For CC1Cc2ccccc2N1C(=O)Cn1c(=O)oc2cc(S(=O)(=O)N3CCCCC3)ccc21 (stereo unspecified), the AC50 was 10 µM [falling, single point].
For CSc1nc(N)nc(SC2C=CCCC2)c1C#N (stereo unspecified), the AC50 was 10 µM [rising, partial curve].
With COc1ccc2cc(C(c3nnnn3C3CCCC3)N3CCc4ccccc4C3)c(=O)[nH]c2c1 (stereo unspecified) the AC50 was 12.6 µM [rising, single point].
In the case of COc1cccc(-c2cc(C(=O)N3CCN(c4ncccn4)CC3)c3ccccc3n2)c1, the AC50 is reported as 25.1 µM [falling, single point].
With Cc1cc(C)n2nc(SCc3cc(=O)n4ccccc4n3)nc2n1 the AC50 was 3.16 µM [rising, full curve].
With COc1cc(-c2cc(=O)c3ccccc3o2)ccc1O the AC50 was 1.58 µM [rising, full curve].
In the case of Clc1ccc(OCc2nc(-c3ccccn3)n[nH]2)cc1, the AC50 is reported as 0.0501 µM [falling, full curve, poor fit].
For O=C(Oc1ccc(-c2nc(-c3ccccn3)no2)cc1)c1ccccc1, the AC50 was 0.00398 µM [falling, full curve, poor fit].
In the case of CCOc1cccc(C(=O)Nc2cccc(-c3nc4ncccc4o3)c2C)c1, the AC50 is reported as 1.58 µM [rising, single point].
For Cc1cccc2cc(C#N)c(SCCN3CCCCC3)nc12, the AC50 was 12.6 µM [rising, single point].
In the case of CC(C)C1Cc2[nH]c(=O)c(C(=O)O)cc2CO1 (stereo unspecified), the AC50 is reported as 15.8 µM [falling, partial curve, poor fit].
In the case of CC1CCCCC1NS(=O)(=O)c1ccc(S(=O)(=O)N2CCN(CCC#N)CC2)cc1 (stereo unspecified), the AC50 is reported as 12.6 µM [rising, partial curve].
With COc1ccc(C2N=C(Nc3ccc(C)cc3)Nc3nc(C)cc(=O)n32)cc1 (stereo unspecified) the AC50 was 31.6 µM [falling, single point].
For CCOc1ccc(-n2c(C)nc3c(cnn3-c3ccc(Cl)cc3)c2=O)cc1, the AC50 was 0.0631 µM [rising, full curve].
For CN(C)c1ncc2nc(CCc3ccccc3)c(=O)n(-c3ccccc3)c2n1, the AC50 was 10 µM [rising, partial curve].
In the case of COc1ccc(Nc2nc(CC(C)=O)ns2)cc1OC, the AC50 is reported as 10 µM [rising, partial curve].
With CCCCCn1c(SCC#N)nc2cc(C(=O)NC3CCCCC3)ccc2c1=O the AC50 was 0.251 µM [falling, full curve].
With COc1cccc(Cn2c(=O)c(C)nc3cnc(Oc4cccc(Cl)c4)nc32)c1 the AC50 was 7.94 µM [rising, partial curve].
For CC(=O)C1=C(O)C(=O)N(CCc2c[nH]c3ccccc23)C1c1cccc(O)c1 (stereo unspecified), the AC50 was 10 µM [falling, partial curve].
With COc1cc(-c2nnc(-c3cccs3)o2)cc(OC)c1OC the AC50 was 2.51 µM [rising, full curve, poor fit].
In the case of COc1ccc(CCn2c(N)c(S(=O)(=O)c3cccs3)c3nc4ccccc4nc32)cc1OC, the AC50 is reported as 5.01 µM [falling, single point].
In the case of COc1ccc(-n2c(=O)c(C)nc3cnc(N4CCNCC4)nc32)cc1, the AC50 is reported as 12.6 µM [rising, partial curve].
In the case of COc1ccc(N2CCN(C(=O)CC(NC(N)=O)c3cccc(Oc4ccccc4)c3)CC2)cc1 (stereo unspecified), the AC50 is reported as 3.98 µM [rising, partial curve].
With COc1ccc(Cn2c(C)nc3c(c2=O)c2nc4ccccc4nc2n3Cc2ccco2)cc1 the AC50 was 12.6 µM [rising, partial curve].
With CCOC(=O)CSc1nc2c(sc(=S)n2Cc2ccco2)c(=O)n1-c1ccccc1 the AC50 was 10 µM [rising, partial curve].
In the case of CCOC(=O)c1[nH]cnc1C(=O)NC1CCCCC1, the AC50 is reported as 3.98 µM [rising, partial curve].
